Test results: PMC7705020
The exact form of at least one protein or probe is not confirmed. For part of these data: No signal at the amounts used counts as a negative.

Tests used:
[1] = test system: GST-MdSND1 (Malus x domestica); assay: EMSA; conditions: Biyuntian EMSA binding buffer, 30 min; 200-fold unlabeled probe for competition; pH and temperature not stated; recombinant protein; protein details: N-terminal GST (pGEX); label: biotin
GST = assay: EMSA; conditions: Biyuntian EMSA binding buffer, 30 min; 200-fold unlabeled probe for competition; pH and temperature not stated; recombinant protein; protein details: GST; label: biotin

Row | Sequence | binding result [1] | binding result (GST)
1 | ATGATTCATTTTTCTTCACTCACAAGGTAATCATGTAC (double strand) [pMdMYB83B-SNBE] | binds | –
2 | TATTATGATTACCTTGAGAATGAAGAAAATAGGTTTA (double strand) [pMdMYB46-SNBE] | binds | no binding
3 | TCAGTGTTCAATTCTCCACCACACGGAATTGAACATG (double strand) [pMdDREB2A-SNBE (P2)] | binds | –
4 | AAAGAGTCAAGGCTTTCTTCCTAAGCAAGTAATAATA (double strand) [pMdAREB1B-SNBE (P3)] | binds | –
5 | CACTTGCATTATCTTGAGGGACAAGGATTGTCTGCCC (double strand) [pMdRD22-SNBE (P3)] | binds | –
6 | ACTTCTATCAACTTTGACATCAAAGCAAGAGCTGCCC (double strand) [pMdRD29A-SNBE (P1)] | binds | –
7 | AATAAAAAAACATTTTTTATGGACGAAATTGCCCCGG (double strand) [pMdAREB1A-SNBE (P1)] | binds | –
8 | TCGATTCATTTTTCTTCACTCACAAGGTAATCCTATAT (double strand) [pMdMYB83A-SNBE] | binds | –
